Data as given in US12690590B2, “Phenyl compound and plant disease control method” (SUMITOMO CHEMICAL COMPANY, LIMITED, priority 2020, dated 2026).
Some of these results come from one statement about several compounds together.

What was measured:
[1] = test system: Puccinia recondita; test: Test Example 8: test for controlling wheat leaf rust, foliar spray before inoculation; type: in vivo; conditions: 200 ppm foliar spray, wheat (Shirogane), inoculated 5 to 7 days after spraying
[2] = test system: Phakopsora pachyrhizi; test: Test Example 11: test for controlling soybean rust, spore germination on agar in petri dish; type: cell-based; conditions: prescribed concentration 10 ppm, 23° C., 1 day
[3] = test system: Septoria tritici; test: Test Example 4: test for controlling wheat leaf blotch, foliar spray before inoculation; type: in vivo; conditions: 200 ppm foliar spray, wheat (Apogee), inoculated 4 days after spraying
[4] = test system: Septoria tritici; test: Test Example 1: test for controlling wheat leaf blotch, growth in titer plate (PDB broth); type: cell-based; conditions: 1 μL of 1500 ppm dimethylsulfoxide solution + 150 μL PDB broth with spores, 96 well, 18° C., 5 days, absorbance at 550 nm
[5] = test system: Septoria tritici; test: Test Example 7: test for controlling wheat leaf blotch, foliar spray after inoculation; type: in vivo; conditions: 200 ppm foliar spray 3 days after inoculation, wheat (Apogee)
[6] = test system: Phakopsora pachyrhizi; test: Test Example 3: test for controlling soybean rust, foliar spray before inoculation; type: in vivo; conditions: 200 ppm foliar spray, soybeans (Kurosengoku), inoculated 2 to 5 days after spraying
[7] = test system: Cercospora sojina; test: Test Example 9: test for controlling soybean Cercospora leaf spot, foliar spray after inoculation; type: in vivo; conditions: 200 ppm foliar spray after inoculation, soybeans (Tachinagaha)
[8] = test system: Colletotrichum truncatum; test: Test Example 2: test for controlling soybean anthracnose, growth in titer plate (PDB broth); type: cell-based; conditions: 1 μL of 1500 ppm dimethylsulfoxide solution + 150 μL PDB broth with spores, 96 well, 18° C., 4 days, absorbance at 550 nm

SMILES	number of germinated spores relative to the number of germinated spores in the non-treated plastic petri dish [2] [%]	lesion area in the treated wheat relative to the lesion area in the non-treated wheat [3] [%]	degree of growth of Septoria tritici in the treated area relative to the degree of growth in the non-treated area [4] [%]	lesion area in the treated soybeans relative to the lesion area in the non-treated soybeans [6] [%]	other results
CCS(=O)(=O)c1ccn(-c2ccc(I)cc2F)n1 [IIA-88]	≤ 30	≤ 30	–	–	lesion area in the treated wheat relative to the lesion area in the non-treated wheat [1]: ≤ 30%
Clc1ccc(-n2ccc(Sc3ccccc3)n2)cc1 [IA-2]	≤ 30	≤ 30	≤ 50	–	lesion area in the treated wheat relative to the lesion area in the non-treated wheat [5]: ≤ 30%
CC(C)S(=O)(=O)c1ccn(-c2ccc(Cl)cc2)n1 [IIA-114]	≤ 30	–	–	≤ 30	–
CCCS(=O)(=O)c1ccn(-c2cccc(OCc3ccccc3)c2)n1 [IIA-125]	–	–	–	≤ 30	–
CCCSc1ccn(-c2cccc(NC(=O)c3ccc(Cl)cc3)c2)n1 [IIA-186]	–	≤ 30	–	–	lesion area in the treated wheat relative to the lesion area in the non-treated wheat [1]: ≤ 30%
CCCS(=O)(=O)c1nc(-c2ccc(Br)cc2)cs1 [IIC-9]	≤ 30	–	≤ 50	≤ 30	–
CC(C)S(=O)(=O)c1nc(-c2ccc(Cl)cc2)cs1 [IIC-3]	–	–	≤ 50	–	lesion area in the treated soybeans relative to the lesion area in the non-treated soybeans [7]: ≤ 30%
CCSc1ccn(-c2ccc(OC)cc2)n1 [IIA-3]	≤ 30	≤ 30	≤ 50	–	degree of growth of Colletotrichum truncatum in the treated area relative to the degree of growth in the non-treated area [8]: ≤ 50%
CCCCS(=O)(=O)c1nc(-c2ccc(Cl)cc2)cs1 [IIC-5]	≤ 30	≤ 30	≤ 50	–	degree of growth of Colletotrichum truncatum in the treated area relative to the degree of growth in the non-treated area [8]: ≤ 50%
CCCSc1ccn(-c2cccc(C(=O)Nc3cccc(Cl)c3)c2)n1 [IIA-192]	–	–	–	–	lesion area in the treated soybeans relative to the lesion area in the non-treated soybeans [7]: ≤ 30%
CCCSc1csc(-c2ccc(Cl)cc2)n1 [IIB-2]	≤ 30	≤ 30	–	≤ 30	–
CCS(=O)(=O)c1ccn(-c2cc(F)c(F)c(F)c2)n1 [IIA-98]	≤ 30	–	–	≤ 30	lesion area in the treated wheat relative to the lesion area in the non-treated wheat [1]: ≤ 30%
CCS(=O)(=O)c1ccn(-c2ccc(Cl)cc2)n1 [IIA-123]	–	≤ 30	–	≤ 30	–
CCSc1ccn(-c2ccc(I)cc2F)n1 [IIA-24]	≤ 30	≤ 30	≤ 50	–	degree of growth of Colletotrichum truncatum in the treated area relative to the degree of growth in the non-treated area [8]: ≤ 50%; lesion area in the treated wheat relative to the lesion area in the non-treated wheat [5]: ≤ 30%
Fc1cc(-n2ccc(Sc3ccccc3)n2)ccc1Cl [IA-3]	≤ 30	≤ 30	≤ 50	–	lesion area in the treated wheat relative to the lesion area in the non-treated wheat [5]: ≤ 30%
CCCS(=O)(=O)c1nc(-c2ccc(F)cc2)cs1 [IIC-17]	≤ 30	–	–	≤ 30	–
CCS(=O)(=O)c1ccn(-c2ccc(OC)c(F)c2)n1 [IIA-96]	≤ 30	–	–	≤ 30	–
CCSc1ccn(-c2ccc(Cl)c(Cl)c2)n1 [IIA-15]	≤ 30	≤ 30	≤ 50	–	degree of growth of Colletotrichum truncatum in the treated area relative to the degree of growth in the non-treated area [8]: ≤ 50%; lesion area in the treated wheat relative to the lesion area in the non-treated wheat [5]: ≤ 30%

SMILES	number of germinated spores relative to the number of germinated spores in the non-treated plastic petri dish [2] [%]	lesion area in the treated wheat relative to the lesion area in the non-treated wheat [3] [%]	degree of growth of Septoria tritici in the treated area relative to the degree of growth in the non-treated area [4] [%]	lesion area in the treated soybeans relative to the lesion area in the non-treated soybeans [6] [%]	other results
CC[S+]([O-])c1ccn(-c2ccc(C(F)(F)F)cc2)n1 (stereo not shown) [IIA-63]	≤ 30	–	–	–	lesion area in the treated wheat relative to the lesion area in the non-treated wheat [1]: ≤ 30%
CCCSc1ccn(-c2cccc(OCc3ccccc3)c2)n1 [IIA-59]	–	–	–	≤ 30	–
CCCS(=O)(=O)c1nc(-c2ccc(C(F)(F)F)cc2)cs1 [IIC-15]	≤ 30	–	–	≤ 30	–
CCS(=O)(=O)c1ccn(-c2ccc(C(F)(F)F)cc2)n1 [IIA-66]	≤ 30	≤ 30	–	≤ 30	–
O=S(=O)(c1ccccn1)c1ccn(-c2ccc(Cl)cc2)n1 [IIA-122]	≤ 30	–	–	≤ 30	–
CCCSc1ccn(-c2cccc(NC(=O)c3ccc(C)cc3)c2)n1 [IIA-185]	–	–	–	–	lesion area in the treated wheat relative to the lesion area in the non-treated wheat [1]: ≤ 30%
CCSc1ccn(-c2cccc(Cl)c2)n1 [IIA-10]	≤ 30	≤ 30	≤ 50	–	degree of growth of Colletotrichum truncatum in the treated area relative to the degree of growth in the non-treated area [8]: ≤ 50%; lesion area in the treated soybeans relative to the lesion area in the non-treated soybeans [7]: ≤ 30%
CCSc1ccn(-c2ccccc2)n1 [IIA-4]	≤ 30	≤ 30	–	–	degree of growth of Colletotrichum truncatum in the treated area relative to the degree of growth in the non-treated area [8]: ≤ 50%
CCSc1ccn(-c2ccc(Cl)c(F)c2)n1 [IIA-21]	≤ 30	≤ 30	≤ 50	–	degree of growth of Colletotrichum truncatum in the treated area relative to the degree of growth in the non-treated area [8]: ≤ 50%
CCCSc1ccn(-c2ccc(Cl)cc2)n1 [IIA-40]	≤ 30	≤ 30	≤ 50	–	degree of growth of Colletotrichum truncatum in the treated area relative to the degree of growth in the non-treated area [8]: ≤ 50%; lesion area in the treated wheat relative to the lesion area in the non-treated wheat [5]: ≤ 30%
CCS(=O)(=O)c1ccn(-c2cc(Cl)cc(Cl)c2)n1 [IIA-81]	–	≤ 30	–	–	lesion area in the treated wheat relative to the lesion area in the non-treated wheat [5]: ≤ 30%
CCS(=O)(=O)c1ccn(-c2ccc(OC(F)(F)F)cc2)n1 [IIA-71]	–	≤ 30	–	–	lesion area in the treated wheat relative to the lesion area in the non-treated wheat [5]: ≤ 30%
Clc1ccc(-n2ccc(Sc3ccccc3Cl)n2)cc1 [IA-8]	–	≤ 30	–	–	lesion area in the treated wheat relative to the lesion area in the non-treated wheat [5]: ≤ 30%; lesion area in the treated wheat relative to the lesion area in the non-treated wheat [1]: ≤ 30%
CCSc1ccn(-c2cc(Cl)cc(Cl)c2)n1 [IIA-17]	–	≤ 30	≤ 50	–	degree of growth of Colletotrichum truncatum in the treated area relative to the degree of growth in the non-treated area [8]: ≤ 50%; lesion area in the treated wheat relative to the lesion area in the non-treated wheat [5]: ≤ 30%
CCC(C)S(=O)(=O)c1nc(-c2ccc(Cl)cc2)cs1 (stereo not shown) [IIC-2]	–	–	–	–	lesion area in the treated soybeans relative to the lesion area in the non-treated soybeans [7]: ≤ 30%
CC(C)Sc1ccn(-c2ccc(Cl)cc2)n1 [IIA-50]	≤ 30	–	≤ 50	–	degree of growth of Colletotrichum truncatum in the treated area relative to the degree of growth in the non-treated area [8]: ≤ 50%; lesion area in the treated wheat relative to the lesion area in the non-treated wheat [5]: ≤ 30%
CCCSc1ccn(-c2ccc(NC(=O)C3CC3)c(F)c2)n1 [IIA-180]	–	–	–	–	lesion area in the treated soybeans relative to the lesion area in the non-treated soybeans [7]: ≤ 30%
